From the M2OR odorant receptor database
Only a part is listed here, and it is no random draw. The calls were merged from several studies; some rest on single wells. The list shows a part of the results.

Columns and labels:
Details in all cases: stereoisomer not certain
OR51I1 (Homo sapiens) = target: T1, OR51I1 (Homo sapiens) (UniProt Q9H343)
T1 sequence (whole entry): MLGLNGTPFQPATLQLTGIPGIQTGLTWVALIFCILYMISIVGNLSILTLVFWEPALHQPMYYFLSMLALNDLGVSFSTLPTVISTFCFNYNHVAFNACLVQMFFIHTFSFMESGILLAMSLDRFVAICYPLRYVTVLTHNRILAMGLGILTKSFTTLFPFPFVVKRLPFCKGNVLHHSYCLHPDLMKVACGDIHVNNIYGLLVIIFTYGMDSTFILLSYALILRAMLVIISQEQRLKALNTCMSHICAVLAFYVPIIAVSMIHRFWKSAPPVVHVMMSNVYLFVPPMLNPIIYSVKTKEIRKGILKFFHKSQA
Outline: (§1)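 Whether a receptor–molecule pair is responsive (active) rests on the original authors' judgment that its measured signal was statistically different from baseline. Pairs without that judgment are non-responsive (inactive). Sources used varied assay methods, commonly transient luciferase assays in mammalian cell lines.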

OR51I2 (Homo sapiens) = target: T2, OR51I2 (Homo sapiens) (UniProt Q9H344)
T2 sequence (whole entry): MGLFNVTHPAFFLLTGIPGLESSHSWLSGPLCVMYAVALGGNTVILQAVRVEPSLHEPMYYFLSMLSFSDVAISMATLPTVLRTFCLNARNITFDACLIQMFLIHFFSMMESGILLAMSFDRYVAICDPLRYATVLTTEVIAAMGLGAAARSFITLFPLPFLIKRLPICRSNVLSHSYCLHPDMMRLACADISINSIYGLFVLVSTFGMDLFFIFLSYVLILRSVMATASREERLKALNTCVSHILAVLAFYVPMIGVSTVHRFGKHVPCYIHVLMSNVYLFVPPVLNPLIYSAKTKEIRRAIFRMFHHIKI
Outline: as §1

OR51L1 (Homo sapiens) = target: T3, OR51L1 (Homo sapiens) (UniProt Q8NGJ5)
T3 sequence (whole entry): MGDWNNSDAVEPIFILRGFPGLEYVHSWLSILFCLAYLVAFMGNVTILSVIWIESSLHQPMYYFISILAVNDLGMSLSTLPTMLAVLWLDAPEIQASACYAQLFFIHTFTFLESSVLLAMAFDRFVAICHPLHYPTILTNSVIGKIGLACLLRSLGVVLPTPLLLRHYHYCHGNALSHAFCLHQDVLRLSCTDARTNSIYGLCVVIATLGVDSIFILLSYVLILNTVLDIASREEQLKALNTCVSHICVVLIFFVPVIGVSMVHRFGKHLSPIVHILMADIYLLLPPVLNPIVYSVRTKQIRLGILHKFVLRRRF
Outline: as §1

OR51S1 (Homo sapiens) = target: T4, OR51S1 (Homo sapiens) (UniProt Q8NGJ8)
T4 sequence (whole entry): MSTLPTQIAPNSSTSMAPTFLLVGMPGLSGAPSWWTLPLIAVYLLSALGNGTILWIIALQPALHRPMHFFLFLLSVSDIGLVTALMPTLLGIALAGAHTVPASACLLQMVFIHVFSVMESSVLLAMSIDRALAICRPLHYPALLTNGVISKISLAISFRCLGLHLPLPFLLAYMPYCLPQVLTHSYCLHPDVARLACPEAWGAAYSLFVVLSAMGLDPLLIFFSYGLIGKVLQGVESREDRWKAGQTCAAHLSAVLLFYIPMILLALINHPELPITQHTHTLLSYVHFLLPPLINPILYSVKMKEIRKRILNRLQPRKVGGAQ
Outline: as §1

OR52A4P (Homo sapiens) = target: T5, OR52A4P (Homo sapiens) (UniProt A6NMU1)
T5 sequence (whole entry): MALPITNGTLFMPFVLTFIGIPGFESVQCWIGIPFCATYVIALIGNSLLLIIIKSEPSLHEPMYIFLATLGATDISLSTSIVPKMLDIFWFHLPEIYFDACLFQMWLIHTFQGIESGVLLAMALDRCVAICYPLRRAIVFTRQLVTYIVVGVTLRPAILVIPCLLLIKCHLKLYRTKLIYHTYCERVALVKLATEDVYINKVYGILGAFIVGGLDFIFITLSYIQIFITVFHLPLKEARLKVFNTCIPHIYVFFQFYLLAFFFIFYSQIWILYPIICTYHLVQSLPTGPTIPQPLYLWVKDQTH
Outline: as §1

OR52A5 (Homo sapiens) = target: T6, OR52A5 (Homo sapiens) (UniProt Q9H2C5)
T6 sequence (whole entry): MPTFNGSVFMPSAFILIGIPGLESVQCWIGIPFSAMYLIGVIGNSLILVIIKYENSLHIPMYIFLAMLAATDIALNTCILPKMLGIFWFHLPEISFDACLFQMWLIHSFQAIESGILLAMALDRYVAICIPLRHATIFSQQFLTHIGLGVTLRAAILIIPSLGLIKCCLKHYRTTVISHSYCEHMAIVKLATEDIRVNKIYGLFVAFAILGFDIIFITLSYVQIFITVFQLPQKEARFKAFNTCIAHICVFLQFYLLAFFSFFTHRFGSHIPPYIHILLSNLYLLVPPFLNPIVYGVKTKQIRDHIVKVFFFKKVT
Outline: as §1

OR52B4 (Homo sapiens) = target: T7, OR52B4 (Homo sapiens) (UniProt Q8NGK2)
T7 sequence (whole entry): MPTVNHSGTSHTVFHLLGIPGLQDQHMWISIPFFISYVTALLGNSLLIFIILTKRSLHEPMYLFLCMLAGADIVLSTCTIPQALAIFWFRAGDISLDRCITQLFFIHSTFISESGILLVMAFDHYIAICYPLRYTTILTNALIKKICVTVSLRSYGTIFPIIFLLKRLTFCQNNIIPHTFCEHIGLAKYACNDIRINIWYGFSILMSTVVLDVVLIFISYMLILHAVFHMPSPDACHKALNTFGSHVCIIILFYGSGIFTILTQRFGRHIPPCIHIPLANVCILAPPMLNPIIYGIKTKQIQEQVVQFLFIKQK
Outline: as §1

OR52D1 (Homo sapiens) = target: T8, OR52D1 (Homo sapiens) (UniProt Q9H346)
T8 sequence (whole entry): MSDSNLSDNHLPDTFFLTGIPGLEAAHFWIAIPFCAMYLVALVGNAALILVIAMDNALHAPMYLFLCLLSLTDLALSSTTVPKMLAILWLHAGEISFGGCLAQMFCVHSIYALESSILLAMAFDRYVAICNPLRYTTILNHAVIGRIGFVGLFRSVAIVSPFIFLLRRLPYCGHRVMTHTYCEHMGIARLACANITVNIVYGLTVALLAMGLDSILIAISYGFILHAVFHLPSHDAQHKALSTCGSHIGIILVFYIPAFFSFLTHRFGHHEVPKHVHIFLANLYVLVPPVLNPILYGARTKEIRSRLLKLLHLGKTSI
Outline: as §1
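Further: active if original authors judged signal statistically different from baseline.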

In the case of `CC(=O)OC(C)(C)C1CC=C(C)CC1` (centres undefined), the “odorant receptor agonist call” value (OR51I1 (Homo sapiens)) is reported as “active”, the “odorant receptor agonist call” value (OR51I2 (Homo sapiens)) is reported as “inactive” and the “odorant receptor agonist call” value (OR51L1 (Homo sapiens)) is reported as “inactive”. For the same compound, the “odorant receptor agonist call” value (OR51S1 (Homo sapiens)) was “inactive”, the “odorant receptor agonist call” value (OR52A4P (Homo sapiens)) was “inactive” and the “odorant receptor agonist call” value (OR52A5 (Homo sapiens)) was “inactive”. For the same compound, the “odorant receptor agonist call” value (OR52B4 (Homo sapiens)) was “inactive” and the “odorant receptor agonist call” value (OR52D1 (Homo sapiens)) was “inactive”.

With `CC12CCC(C1)C(C)(C)C2=O` (centres undefined) the “odorant receptor agonist call” value (OR51I1 (Homo sapiens)) was “inactive”, the “odorant receptor agonist call” value (OR51I2 (Homo sapiens)) was “inactive” and the “odorant receptor agonist call” value (OR51L1 (Homo sapiens)) was “inactive”. The “odorant receptor agonist call” value (OR51S1 (Homo sapiens)) was “inactive”, the “odorant receptor agonist call” value (OR52A4P (Homo sapiens)) was “inactive” and the “odorant receptor agonist call” value (OR52A5 (Homo sapiens)) was “inactive”. For the same compound, the “odorant receptor agonist call” value (OR52B4 (Homo sapiens)) was “inactive” and the “odorant receptor agonist call” value (OR52D1 (Homo sapiens)) was “inactive”.

In the case of `c1ccc(Oc2ccccc2)cc1`, the “odorant receptor agonist call” value (OR51I1 (Homo sapiens)) is reported as “inactive”, the “odorant receptor agonist call” value (OR51I2 (Homo sapiens)) is reported as “inactive” and the “odorant receptor agonist call” value (OR51L1 (Homo sapiens)) is reported as “inactive”. The “odorant receptor agonist call” value (OR51S1 (Homo sapiens)) was “inactive”, the “odorant receptor agonist call” value (OR52A4P (Homo sapiens)) was “inactive” and the “odorant receptor agonist call” value (OR52A5 (Homo sapiens)) was “inactive”. For the same compound, the “odorant receptor agonist call” value (OR52B4 (Homo sapiens)) was “inactive” and the “odorant receptor agonist call” value (OR52D1 (Homo sapiens)) was “inactive”.

For `CC1=CCC(C(C)(C)O)CC1` (centres undefined), the “odorant receptor agonist call” value (OR51I1 (Homo sapiens)) was “active”, the “odorant receptor agonist call” value (OR51I2 (Homo sapiens)) was “inactive” and the “odorant receptor agonist call” value (OR51L1 (Homo sapiens)) was “inactive”. The “odorant receptor agonist call” value (OR51S1 (Homo sapiens)) was “inactive”, the “odorant receptor agonist call” value (OR52A4P (Homo sapiens)) was “inactive” and the “odorant receptor agonist call” value (OR52A5 (Homo sapiens)) was “inactive”. For the same compound, the “odorant receptor agonist call” value (OR52B4 (Homo sapiens)) was “inactive” and the “odorant receptor agonist call” value (OR52D1 (Homo sapiens)) was “inactive”.

In the case of `C=CCSCC=C`, the “odorant receptor agonist call” value (OR51I1 (Homo sapiens)) is reported as “inactive”, the “odorant receptor agonist call” value (OR51I2 (Homo sapiens)) is reported as “inactive” and the “odorant receptor agonist call” value (OR51L1 (Homo sapiens)) is reported as “inactive”. The “odorant receptor agonist call” value (OR51S1 (Homo sapiens)) was “inactive”, the “odorant receptor agonist call” value (OR52A4P (Homo sapiens)) was “inactive” and the “odorant receptor agonist call” value (OR52A5 (Homo sapiens)) was “inactive”. The “odorant receptor agonist call” value (OR52B4 (Homo sapiens)) was “inactive” and the “odorant receptor agonist call” value (OR52D1 (Homo sapiens)) was “inactive”.

In the case of `CCCCCC(=O)O`, the “odorant receptor agonist call” value (OR51I1 (Homo sapiens)) is reported as “inactive”, the “odorant receptor agonist call” value (OR51I2 (Homo sapiens)) is reported as “inactive” and the “odorant receptor agonist call” value (OR51L1 (Homo sapiens)) is reported as “active”. The “odorant receptor agonist call” value (OR51S1 (Homo sapiens)) was “inactive”, the “odorant receptor agonist call” value (OR52A4P (Homo sapiens)) was “inactive” and the “odorant receptor agonist call” value (OR52A5 (Homo sapiens)) was “inactive”. The “odorant receptor agonist call” value (OR52B4 (Homo sapiens)) was “inactive” and the “odorant receptor agonist call” value (OR52D1 (Homo sapiens)) was “active”.

In the case of `COC(=O)c1ccccc1O`, the “odorant receptor agonist call” value (OR51I1 (Homo sapiens)) is reported as “inactive”, the “odorant receptor agonist call” value (OR51I2 (Homo sapiens)) is reported as “inactive” and the “odorant receptor agonist call” value (OR51L1 (Homo sapiens)) is reported as “inactive”. For the same compound, the “odorant receptor agonist call” value (OR51S1 (Homo sapiens)) was “inactive”, the “odorant receptor agonist call” value (OR52A4P (Homo sapiens)) was “inactive” and the “odorant receptor agonist call” value (OR52A5 (Homo sapiens)) was “inactive”. The “odorant receptor agonist call” value (OR52B4 (Homo sapiens)) was “inactive” and the “odorant receptor agonist call” value (OR52D1 (Homo sapiens)) was “inactive”.

`C=CCc1ccc(OC)c(OC)c1` was tested, and the “odorant receptor agonist call” value (OR51I1 (Homo sapiens)) was “inactive”, the “odorant receptor agonist call” value (OR51I2 (Homo sapiens)) was “inactive” and the “odorant receptor agonist call” value (OR51L1 (Homo sapiens)) was “inactive”. For the same compound, the “odorant receptor agonist call” value (OR51S1 (Homo sapiens)) was “inactive”, the “odorant receptor agonist call” value (OR52A4P (Homo sapiens)) was “inactive” and the “odorant receptor agonist call” value (OR52A5 (Homo sapiens)) was “inactive”. For the same compound, the “odorant receptor agonist call” value (OR52B4 (Homo sapiens)) was “inactive” and the “odorant receptor agonist call” value (OR52D1 (Homo sapiens)) was “inactive”.
